A: 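Lysine-tRNA ligase, Plasmodium falciparum 3D7 (UniProt Q8IDJ8). Enzyme assay of the cytosolic lysyl-tRNA synthetase in 384-well plates, read by luminescence. Concentration: 30 µM. Higher reads as stronger inhibition, judged from the few compounds that gave an IC50. Size under these conditions: about 69,000 compounds, about 49 of them at 50% or above in at least one test.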
B: 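Assay of Toxoplasma gondii numbers, read through their beta-galactosidase reporter with a colour substrate. Compounds at 10 µM. The record gives no direction; the compounds picked for IC50 retests had high values, so higher reads as fewer parasites. Size under these conditions: about 67,000 compounds, about 260 of them at 50% or above in at least one test.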
C: 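Enzyme assay of CoaBC with a phosphate dye (Biomol Green) read at 650 nm. Target: Coenzyme A biosynthesis protein CoaBC, Mycobacterium tuberculosis (UniProt P9WNZ1). Tested at 30 µM. Direction is inferred from only a few compounds that gave an IC50; most scored high, so higher reads as stronger inhibition. Most strong results did not repeat in a second test. Of about 67,000 compounds tested this way, about 40 (0.06%) reached 50% or more in at least one test.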

The chains behind the UniProt entries cited, without tags or fusion partners. Residues count along the entry.
UniProt Q8IDJ8, 1-583: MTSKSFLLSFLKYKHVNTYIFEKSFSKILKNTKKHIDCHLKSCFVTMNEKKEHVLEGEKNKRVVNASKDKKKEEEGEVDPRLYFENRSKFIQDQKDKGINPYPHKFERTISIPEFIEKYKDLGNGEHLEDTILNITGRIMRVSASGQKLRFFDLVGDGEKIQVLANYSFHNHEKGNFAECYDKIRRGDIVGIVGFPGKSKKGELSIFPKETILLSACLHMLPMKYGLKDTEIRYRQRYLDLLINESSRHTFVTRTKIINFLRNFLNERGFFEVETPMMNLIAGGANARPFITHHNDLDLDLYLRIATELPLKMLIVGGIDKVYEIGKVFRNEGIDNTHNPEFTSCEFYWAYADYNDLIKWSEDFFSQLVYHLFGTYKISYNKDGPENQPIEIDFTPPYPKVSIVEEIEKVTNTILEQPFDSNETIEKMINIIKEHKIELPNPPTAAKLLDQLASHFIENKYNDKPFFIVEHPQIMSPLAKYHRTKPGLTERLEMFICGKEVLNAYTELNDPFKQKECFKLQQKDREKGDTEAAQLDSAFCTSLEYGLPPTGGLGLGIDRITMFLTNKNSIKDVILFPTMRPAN
UniProt P9WNZ1, whole entry: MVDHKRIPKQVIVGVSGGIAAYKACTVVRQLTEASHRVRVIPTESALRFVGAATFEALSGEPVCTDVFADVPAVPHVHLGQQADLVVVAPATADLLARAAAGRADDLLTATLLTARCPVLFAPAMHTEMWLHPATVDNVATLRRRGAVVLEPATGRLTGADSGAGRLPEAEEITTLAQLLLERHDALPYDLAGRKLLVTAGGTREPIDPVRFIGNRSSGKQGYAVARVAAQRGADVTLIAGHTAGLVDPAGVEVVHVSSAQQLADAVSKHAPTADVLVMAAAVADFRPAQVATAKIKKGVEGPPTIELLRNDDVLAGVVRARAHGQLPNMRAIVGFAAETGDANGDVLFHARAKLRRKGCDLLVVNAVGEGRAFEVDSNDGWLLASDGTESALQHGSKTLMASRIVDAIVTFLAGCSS

Values are the deposited “Percent Effect”, in %.
The record does not define 0% and 100%; most values in the screen are far below 50% and negative numbers occur (in some assays of this library far below -100).
The compounds are a random part of those screened.
A dash means the value is not listed here; it may have been measured.

SMILES,A,B,C
COc1cc2c(cc1-c1nc3c(cnn3C(C)C(C)C)[nH]1)OCO2 (configuration not stated),6.875,-3.279,-5.785
Cc1c(C(=O)NC(C)C)nnn1-c1cccc(C(F)(F)F)c1,2.857,-16.93,0.5102
Cc1occc1C(=O)N1CCCN(Cc2ncc(Cl)n2C)CC1,-0.3918,7.223,-0.319
COCCC(=O)N1CCC2(CCN(Cc3cccc(F)c3)CC2)C1.O=C(O)C(F)(F)F,-,-24.03,-
O=C1NCC2=C1C(c1ccccc1)Nc1ccccc1N2 (configuration not stated),2.202,-9.838,2.532
Cc1nc(CN2CCCC(N(C)CC3CCCC3)C2)no1 (configuration not stated),0.7118,4.882,1.02
CCOCC1CN(C(=O)c2cnoc2C)Cc2cn(C)nc21 (configuration not stated),12.45,-,-
CC(=O)Nc1ccc(-c2ccccc2CCN)cc1,9.45,25.75,4.084
[H][C@@]12CCN(c3cccc(C)n3)C[C@]1([H])[C@@H](CN(C)Cc1ccco1)OC2,-,-26.91,-
Cc1noc(C)c1CN(C)C(=O)NC(C)c1cccs1 (configuration not stated),0.04439,4.097,-1.373
c1ccc(CN2CCc3ncnc(-c4ccoc4)c3CC2)nc1,-1.533,-,14.47
CCc1ccc(C(COC)NC(=O)c2ccc(C(N)=O)cc2)o1 (configuration not stated),0.7033,5.838,-6.315
CN(C)CC(=O)N1CCC2(CC1)COCCN(Cc1ccncc1)C2,-1.261,-1.214,3.337
O=C(Nc1ccc2c(c1)C(=O)NC2=O)c1ccc(Cl)s1,6.267,-1.861,-1.789
CS(=O)(=O)CCNC(=O)C1(c2cccc(Cl)c2)CCCCC1,-5.57,-16.34,-4.641
CC(C)n1c(C2CCCN(CC(=O)NC(N)=O)C2)nc2ccccc21 (configuration not stated),-2.269,-3.522,0.6048
C=C(C)COc1ccc(C(=O)N(C)C(C)c2ccon2)cc1 (configuration not stated),5.035,-0.4284,-0.8929
CN(Cc1cccnc1)C1CC2(CCN(C(=O)c3ccnnc3)CC2)C1,11.64,14.03,8.35
Cc1cnc(CN(C)C2CCN(CCCc3ccccc3)C2)o1 (configuration not stated),0.5567,-11.9,4.178
OCCCN1CCCC1c1nc(Cc2ccc(F)cc2)no1 (configuration not stated),5.022,1.654,-2.532
Cc1nc(C2CCCN(C(=O)c3cccc4c3OCCO4)C2)no1 (configuration not stated),3.666,-6.551,5.471
CCC(=O)N1C[C@@H]2CCN(c3cnccn3)C[C@@H]2C1,-0.6443,-,1.412
Cc1ccccc1OC1CN(Cc2c(C)nc3ccccn23)C1,11.67,19.37,2.558
CSc1ccc(-c2nc(CN3CCC(NC(C)=O)C3)c(C)o2)cc1 (configuration not stated),-5.712,-1.385,-8.316
Cc1ccsc1C(=O)N1CC[C@@H](N(C)C)[C@@H]1Cc1cnn(C)c1,-3.023,-,4
Cc1cnc(CN2CCN(c3ccc4nncn4n3)C(C)C2)cn1 (configuration not stated),0.9363,6.647,-1.161
CCN(C(=O)c1ccc2nncn2c1)C(C)Cc1ccc(OC)cc1 (configuration not stated),-0.01188,-3.084,14.73
O=C(N1CCCC1)N1CCC(c2nccn2Cc2cscn2)CC1,2.905,9.246,-2.533
Cc1nc(CN2CCN(C(=O)c3ccnc(N(C)C)c3)CC2)cs1,0.6029,20.67,-2.949
O=C(O)C(F)(F)F.c1cc(-c2ccc3c(c2)CCC32CCN(c3nncs3)CC2)ccn1,-,10.28,-
[H][C@@]12CN(Cc3ccccn3)C(=O)N1CCN(S(=O)(=O)c1ccccc1)C2,-,4.834,-
Cc1nn(C)cc1-c1cncn1CCc1ccc2c(c1)OCCO2.Cl,-,-4.537,-
Cl.Cn1ccnc1Sc1ccc(N)cn1,-,2.518,-
CCOC(=O)C1CCN(CCCc2nnnn2-c2ccccc2)CC1,1.326,4.744,3.64
O=c1c2c(ncn1CCO)nc1n2CCC1,0.7301,-1.586,5.295
CCc1ccc(CN2CCN(Cc3ncc[nH]3)[C@H]3CS(=O)(=O)C[C@H]32)nc1,2.953,-,5.263
Cc1nn(C)cc1C1CC(=O)Nc2c1cnn2C (configuration not stated),-5.722,18.06,0.1211
Cc1cccn2c(NC(C)(C)C)c(C3CCN(C(=O)C4CC4)CC3)nc12,1.5,1.456,-13.07
COc1ccccc1CC(=O)NS(C)(=O)=O,2.307,2.329,0.241
CN1CCN(c2cc(CNC(=O)c3ccc(=O)n(C)c3)ccn2)CC1,-0.8909,-19.92,6.995
C[C@@H]1CN(CCOc2ccc(Cl)cc2)CC[C@@]1(O)C1CCOCC1,-3.168,15.06,-7.071
O=C(O)C(F)(F)F.[H][C@@]12C[C@@H](C(=O)NC3CCC3)C[C@@]1([H])N(CC1CC1)CCO2,-,1.512,-
O=C1CCC2(CCN(Cc3cc(F)cc(F)c3)CC2)CN1CCO,4.28,1.861,-0.4219
CCn1c(SCC(N)=O)nnc1-c1csc2c1CCCC2,3.158,10.97,-2.41
CC(=O)N1CCCN(C(=O)NCc2ccc(-c3ccn[nH]3)cc2)CC1,1.682,0.9153,5.236
c1cn2c(n1)CN(CC1CC1)CC(CN1CCOCC1)C2 (configuration not stated),0.38,-,2.188
CCOC(=O)N1CCN(C(=O)C2Cc3ccccc3CN2C)CC1 (configuration not stated),1.153,-29.11,12.97
CCC(CC)c1cc(CNC(=O)N2CCCC(N(C)C)C2)on1 (configuration not stated),6.124,3.775,2.643
[H][C@@]12CCC(=O)N(CC(C)C)[C@]1([H])CCN(Cc1ncc[nH]1)C2,-,-0.6233,-
CC(NCc1ccccc1Cl)c1ccc(OCC(=O)NC2CC2)cc1 (configuration not stated),3.989,-12.2,4.198
Cn1cc(CN2CC[C@@H]3[C@H]2CCC(=O)N3c2ccccc2)cn1,-4.835,-,-6.289
O=C(Nc1ccccc1)C1CN(CC2CCOCC2)CC12CCOCC2.O=C(O)C(F)(F)F (configuration not stated),-,-0.06028,-
COc1cc(N2C[C@@H]3COC[C@]3(C(=O)NCc3ccccn3)C2)ncn1,4.949,-,4.44
COCCN1C[C@H](OCc2csc(C)n2)[C@H]2COC[C@H]21,2.987,-,1.603
CNCc1cn(C[C@H]2C[C@@H]3CCN2C[C@@H]3C(=O)NC2CCCCC2)nn1,2.245,-,-4.636
CCc1nc(CN2CCCC(NCc3ccc(C(N)=O)cc3)C2)no1 (configuration not stated),10.27,-,5.398
COCc1cccc(CNC(=O)CNc2ccccc2C(C)=O)c1,1.84,5.712,3.738
CCS(=O)(=O)N1CCCc2ccc(NC(=O)Cc3ccc(F)cc3)cc21,-5.968,-0.5543,-2.155
CCCS(=O)(=O)N1CCC2(CC1)CN(c1ccccn1)CCO2,-4.49,-,0.6729
[H][C@]12CCCCN1CCC[C@H]2CNC(=O)Cn1ccc2cc(C)ccc21,-,9.444,-
CCc1nc(C2CCCN2Cc2ccno2)no1 (configuration not stated),2.513,-4.035,3.484
O=C(CCc1cccnc1)N(Cc1ccsc1)CC1CCCO1 (configuration not stated),-5.042,5.655,-3.625
CC(C)c1noc(C(C)N2CCN(Cc3ccsc3)CC2)n1 (configuration not stated),5.242,-10.73,2.838
Cc1nn(C)c(C)c1S(=O)(=O)NCC(C)(O)c1ccc2c(c1)OCO2 (configuration not stated),0.8714,16.99,9.514
CN(CC1(C)COC1)C(=O)c1cc(-c2ccn(C)n2)nc2ccccc12,-1.908,15.27,-2.871
c1cnnc(N2CCCC2CNc2ncnc3ccsc23)c1 (configuration not stated),-1.581,22.74,3.69
N#CC1(NC(=O)Cn2nnc(-c3cc4ccccc4o3)n2)CCCC1,7.557,0.5895,-37.3

For reference, 8 entries once more:

For COc1cc2c(cc1-c1nc3c(cnn3C(C)C(C)C)[nH]1)OCO2 (configuration not stated) the result was A: 6.875%; B: -3.279%; C: -5.785%.
For Cc1cnc(CN2CCN(c3ccc4nncn4n3)C(C)C2)cn1 (configuration not stated) the result was A: 0.9363%; B: 6.647%; C: -1.161%.
For CS(=O)(=O)CCNC(=O)C1(c2cccc(Cl)c2)CCCCC1 the result was A: -5.57%; B: -16.34%; C: -4.641%.
For Cc1occc1C(=O)N1CCCN(Cc2ncc(Cl)n2C)CC1 the result was A: -0.3918%; B: 7.223%; C: -0.319%.
For [H][C@]12CCCCN1CCC[C@H]2CNC(=O)Cn1ccc2cc(C)ccc21 the result was B: 9.444%.
For Cc1noc(C)c1CN(C)C(=O)NC(C)c1cccs1 (configuration not stated) the result was A: 0.04439%; B: 4.097%; C: -1.373%.
For Cc1cccn2c(NC(C)(C)C)c(C3CCN(C(=O)C4CC4)CC3)nc12 the result was A: 1.5%; B: 1.456%; C: -13.07%.
For CCC(=O)N1C[C@@H]2CCN(c3cnccn3)C[C@@H]2C1 the result was A: -0.6443%; C: 1.412%.

The values are deposited in ChEMBL (CHEMBL3988442, “University of Dundee, Small-Polar-MMV Screening Library” (2021)).